At least one peptide structure holds a part that was inferred or is arguable (an end, a ring closure or a residue). No end group written: not given here.
Tested on: Porcine macrophage cells (3D4/2 cell line)
Experiment: LPS-induced inflammation in porcine macrophages (cytokine mRNA)
Type: cell-based
Details: 20 μg/mL peptide + 1 μg/mL E. coli LPS vs LPS alone, 24 hrs
Procedure: Porcine macrophage cells (3D4/2 cell line) were cultured on RPMI-1640 medium with 10% fetal bovine serum, at 37° C. in a 5% CO2 cell incubator, until the cells formed a monolayer with about 80-90% confluency. The cells were counted and plated. The cells were seeded to a 6-well plate at 1×10^6/well, RPMI-1640 complete medium was added, and the cells were cultured to 80% confluency. Then the medium was replaced by fresh serum-free RPMI-1640 medium (2 mL). […] Each group of experiments was repeated for six replications. After incubation for 24 hrs, cells were collected and total RNA was extracted using Trizol. cDNA was obtained by reverse transcription. Relative mRNA expression of IL-6, IL-8 and IL-22 was detected. The relative mRNA expression of IL-22, IL-8 and IL-6 were measured by quantitative fluorescence method. GAPDH gene was used as a internal reference gene.

VKFFRKLKKSVKEKIGKEFKR [WY-21]
significantly decreased: relative mRNA expression of IL-6 | relative mRNA expression of IL-8 | relative mRNA expression of IL-22

Reference: patent US9475843B2 (Zhejiang University, priority 2015, dated 2016)
